Test results published in paper doi:10.1101/2021.08.11.456023.
No constants are given. Whether binding was seen depends on the method and setting. In cells and extracts the contact can be indirect. Some entries that bind do so weakly or less than the wild type.

Protein sequences, listed by entry. Tags and fused reporters are not part of them.
UniProt P42227: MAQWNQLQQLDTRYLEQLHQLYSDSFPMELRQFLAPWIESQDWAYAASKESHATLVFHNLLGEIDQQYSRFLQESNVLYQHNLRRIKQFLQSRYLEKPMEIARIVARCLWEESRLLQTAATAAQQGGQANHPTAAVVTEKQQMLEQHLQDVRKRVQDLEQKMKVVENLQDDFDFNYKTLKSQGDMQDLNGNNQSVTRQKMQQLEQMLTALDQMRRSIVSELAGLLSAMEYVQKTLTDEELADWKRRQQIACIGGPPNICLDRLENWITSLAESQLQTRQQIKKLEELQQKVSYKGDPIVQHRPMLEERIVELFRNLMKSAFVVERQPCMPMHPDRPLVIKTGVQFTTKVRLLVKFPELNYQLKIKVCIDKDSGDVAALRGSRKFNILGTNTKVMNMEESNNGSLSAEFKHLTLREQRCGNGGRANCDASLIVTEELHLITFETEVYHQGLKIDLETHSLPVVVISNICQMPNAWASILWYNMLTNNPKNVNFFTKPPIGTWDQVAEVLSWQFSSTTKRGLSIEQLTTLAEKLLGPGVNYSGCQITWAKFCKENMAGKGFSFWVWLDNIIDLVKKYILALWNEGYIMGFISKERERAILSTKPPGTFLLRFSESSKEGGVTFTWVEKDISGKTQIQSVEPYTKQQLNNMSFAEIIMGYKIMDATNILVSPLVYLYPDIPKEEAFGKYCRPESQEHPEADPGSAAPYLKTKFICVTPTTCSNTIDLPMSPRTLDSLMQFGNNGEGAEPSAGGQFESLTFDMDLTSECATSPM

Key:
Assay in all cases: co-IP
[1] = biological target: T1, Kindlin-2 (full-length, overexpressed) (UniProt Q8CIB5)
T1 sequence: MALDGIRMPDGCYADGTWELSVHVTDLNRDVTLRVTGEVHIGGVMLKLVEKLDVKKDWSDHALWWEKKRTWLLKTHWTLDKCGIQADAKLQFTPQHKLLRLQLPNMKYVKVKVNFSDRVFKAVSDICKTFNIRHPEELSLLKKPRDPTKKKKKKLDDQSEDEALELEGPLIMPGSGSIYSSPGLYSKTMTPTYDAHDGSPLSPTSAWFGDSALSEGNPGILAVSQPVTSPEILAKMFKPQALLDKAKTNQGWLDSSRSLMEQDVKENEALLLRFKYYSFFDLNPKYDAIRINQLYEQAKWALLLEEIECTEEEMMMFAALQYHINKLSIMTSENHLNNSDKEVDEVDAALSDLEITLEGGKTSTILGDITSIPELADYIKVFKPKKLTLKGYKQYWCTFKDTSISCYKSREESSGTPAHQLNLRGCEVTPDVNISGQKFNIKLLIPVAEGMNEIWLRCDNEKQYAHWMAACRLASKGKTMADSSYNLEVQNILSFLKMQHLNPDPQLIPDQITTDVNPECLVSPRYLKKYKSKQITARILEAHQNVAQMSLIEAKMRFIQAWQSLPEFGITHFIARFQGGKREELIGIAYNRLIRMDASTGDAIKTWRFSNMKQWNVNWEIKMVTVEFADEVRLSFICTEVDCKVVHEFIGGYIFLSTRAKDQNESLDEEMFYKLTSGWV

[2] = biological target: T2, Kindlin-2 (endogenous) (mouse (endogenous in primary articular chondrocytes)) (UniProt Q8CIB5)
T2 sequence: T1 sequence

Flag-Stat3 = Flag-Stat3 (UniProt P42227)

Molecule: Flag-Stat3 (from UniProt P42227 1-770)
- binding [1]: binds

Molecule: Stat3 (endogenous) (from UniProt P42227 1-770)
- binding [2]: binds

B1: Kindlin-2 (full-length, overexpressed) (protein, UniProt Q8CIB5 1-680)
chain: T1 sequence
- binding (Flag-Stat3): binds
